# According to patent US20180193336A1, “SPRAY DRY FORMULATIONS” (Pulmokine, Inc., priority 2013, published 2018):
# Tested on: PDGFAA stimulated AKT phosphorylation
# Assay: In cell Western, PDGFAA stimulated AKT phosphorylation in human fetal lung fibroblasts
# Type: cell-based
# Description: HLFs were maintained in subculture at no more than 6 passages in DMEM with 5% FBS and 4 mM Glutamax at 37° C., 5% CO2. HLFs were plated and grown to 70-80% confluence in 96 well plates then serum-starved for 48 hours. […] Cells were fixed in 3.7% formaldehyde, washed with 0.1% Triton X-100, and treated with Odyssey Blocking Buffer for 90 min. Proteins were incubated overnight 1:100 diluted rabbit mAb to phosphorylated AKT (Ser 473 or Thr 308) and 1:100 mouse mAb to total Akt-pan-4040D. Antibodies were detected using IRDye 680LT goat anti-mouse IgG and IRDye 800 W goat α-rabbit IgG conjugated antibodies. After washing, the signal was quantified using an Odyssey Infrared Imaging System (LI-COR). Phosphoprotein signal (800 nm) was normalized to total protein signal (700 nm) acquired from each well and experimental duplicates on same plate were averaged and reported.
smiles,measurement,value
"Cc1ccc(NC(=O)c2ccc(CN3CCN(C)CC3)cc2)cc1Nc1nccc(-c2cccnc2)n1 [Imatinib, reference compound]","IC50 for PDGFAA stimulated phosphorylation of AKT, PK10453 compared with imatinib",not significantly different
